For at least one compound, name, drawing or mass did not settle the structure.
Target: T1, human PGI2 receptors (hIP) (Homo sapiens, UniProt P43119)
T1 construct: expressed in transfected cells; host or cells: CHO-K1
Test: Method C: effect on epoprostenol-cAMP production curve in CHO/hIP cells (left shift value)
Type: cell-based
Settings: Table 5, concentration of test compound that halves the EC50 of epoprostenol
Protocol: The effect of a test compound on the cAMP production curve with respect to the IP agonist epoprostenol (manufactured by GlaxoSmithKline) was investigated using CHO-K1 cells (CHO/hIP cells) in which human PGI2 receptors (hIP) are stably expressed.
An amount of 5 μL of a mixture (diluted in F-12 culture medium (manufactured by GIBCO) including 0.1% BSA) of epoprostenol dissolved in DMSO and a test compound dissolved in DMSO was dispensed in advance into a 384-well black microplate, and 5 μL of CHO/hIP cells suspended at a concentration of 1.4×10^6 cells/mL in F-12 culture medium including 0.1% BSA were added to the microplate. After 40 minutes of incubation at room temperature, the amount of cAMP was measured using a cAMP assay kit (cAMP HiRange, manufactured by Cisbio Bioassays). Specifically, 5 μL of a cAMP-d2 solution (including a cell lysate) from the kit were added and the reaction was stopped, then 5 μL of a fluorescence-labeled cAMP antibody solution from the kit were added and incubation was performed for 1 hour at room temperature, after which fluorescence was measured using a PHERAstar plate reader (manufactured by BMG) in HTRF (registered trademark) mode. The amount of cAMP in each well was calculated from a cAMP calibration curve obtained using a standard sample, and an epoprostenol-cAMP production curve for the presence of various concentrations of the test compound was created.

By UniProt entry, the sequences of proteins in these tests, tags left out. Where a name states a change or a piece, a line headed by the entry shows the natural chain unless it says otherwise.
UniProt P43119: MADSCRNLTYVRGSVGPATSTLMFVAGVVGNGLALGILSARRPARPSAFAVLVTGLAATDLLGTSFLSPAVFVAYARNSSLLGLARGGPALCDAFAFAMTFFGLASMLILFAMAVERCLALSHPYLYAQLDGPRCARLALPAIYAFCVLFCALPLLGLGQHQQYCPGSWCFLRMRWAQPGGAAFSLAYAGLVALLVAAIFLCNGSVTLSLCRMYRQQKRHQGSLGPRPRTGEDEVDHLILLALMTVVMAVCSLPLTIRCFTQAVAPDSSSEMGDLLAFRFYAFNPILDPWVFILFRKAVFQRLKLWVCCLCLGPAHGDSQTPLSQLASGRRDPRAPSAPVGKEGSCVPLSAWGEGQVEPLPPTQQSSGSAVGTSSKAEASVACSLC

Row | Structure (SMILES) | Left shift value
1 | CC(C)(C)n1nnnc1C(c1ccccc1OCc1ccccc1)N1CCc2sccc2C1 (centres unmarked) [Example 61, 5-((2-(benzyloxy)phenyl)(1-(tert-butyl)-1H-tetrazol-5-yl)methyl)-4,5,6,7-tetrahydrothieno[3,2-c]pyridine] | 1.5 µM
2 | COc1cccc(F)c1C(c1nnnn1C(C)(C)C)N1CCc2ccccc2C1 (centres unmarked) [Example 77, 2-((1-(tert-butyl)-1H-tetrazol-5-yl)(2-fluoro-6-methoxyphenyl)methyl)-1,2,3,4-tetrahydroisoquinoline] | 16.3 µM
3 | CC(C)(C)n1nnnc1C(c1ccc(Br)cc1)N1CCc2sccc2C1 (centres unmarked) [Example 64, 5-((4-bromophenyl)(1-(tert-butyl)-1H-tetrazol-5-yl)methyl)-4,5,6,7-tetrahydrothieno[3,2-c]pyridine] | 55.7 µM
4 | COc1ccc(F)cc1C(c1nnnn1C(C)(C)C)N1CCc2ccccc2C1 (centres unmarked) [Example 78, 2-((1-(tert-butyl)-1H-tetrazol-5-yl)(5-fluoro-2-methoxyphenyl)methyl)-1,2,3,4-tetrahydroisoquinoline] | 21.0 µM
5 | CC(C)(C)n1nnnc1C(c1cc(F)ccc1O)N1CCc2ccccc2C1 (centres unmarked) [Example 79, 2-((1-(tert-butyl)-1H-tetrazol-5-yl)(3,4-dihydroisoquinolin-2(1H)-yl)methyl)-4-fluorophenol] | 12.3 µM
